Library screen at single concentrations

Source: ChEMBL document CHEMBL3988442, “University of Dundee, Small-Polar-MMV Screening Library” (2021).

A: 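Whole-cell growth test on Mycobacterium tuberculosis, read after 4 days in a medium based on cholesterol and the lipid DPPC; the read-out is not stated. Compounds at 50 µM. The record gives no direction; compounds that gave an IC50 in retests scored well above the rest, so higher reads as more growth inhibition. Size under these conditions: about 69,000 compounds, about 370 of them at 50% or above in at least one test.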
B: 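Growth of Mycobacterium tuberculosis over 3 days (7H9 medium with glucose and tyloxapol); the read-out is not stated. Tested at 50 µM. Direction is inferred from retests: higher values go with more growth inhibition. Of about 69,000 compounds tested this way, about 760 (1.1%) reached 50% or more in at least one test.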

Values are the deposited “Percent Effect”, in %.
How 0% and 100% were set is not recorded. Most values in the screen are low, and negative values occur.
The compounds are a random part of those screened.
Two or more numbers in one place are separate tests of the same structure; such repeats can differ widely.

SMILES	A	B
CC(CNC(=O)c1cc(C2CC2)on1)N1CCc2ccccc21 (stereo not given)	41.23	57.18
[H][C@@]12CCN(C(=O)c3occc3C)C[C@@]1([H])O[C@@H](c1nnc(C3CC3)o1)C2	15.43	5.607
O=C(O)C(F)(F)F.[H][C@@]12CCN(CC(=O)NC)C[C@]1([H])CN(C(=O)c1ccoc1)C2	3.214	-2.61
Cc1nc(-c2cccc(N3CCC(N4CCCC4)CC3)c2)cs1	12.33	66
c1ccc(CN2CCCC(CNc3ncnc4c3CCNCC4)C2)cc1 (stereo not given)	22.58	25.54
CC(C)(C)c1n[nH]c(C2CN(Cc3nnc(C4CCC4)o3)CCO2)n1 (stereo not given)	-6.565	-6.267
CCc1ncc(C(=O)N2CCN(c3cnn(C)c(=O)c3)CC2)cn1	9.858	22.54
CC(C)(O)CCc1ccc(C(=O)NCCC2CCCOC2)cc1 (stereo not given)	1.507	21.69
COCC1c2nnn(C)c2CCN1C(=O)CCc1cccc(OC)c1 (stereo not given)	-6.328	-24.14
[H][C@@]12CCN(C[C@@H]1c1cc(-c3ccccc3)nn1C)[C@@H](CNS(C)(=O)=O)C2	20.44	20.69 and 5.173
O=C(O)C(F)(F)F.[H][C@@]12CCCO[C@]1([H])[C@@H](NC(=O)c1cccn1C)CN2Cc1ccoc1	-7.475	-30.35
Cc1nn(C)c2nc(N(CCN(C)C)C3CCCC3)sc12	-7.637	5.61
CN(C)Cc1nc(-n2cnc(C(=O)NC3CCCC3)c2)n2ccccc12	-12.67	4.624
Cc1nc(C)c(C(=O)N2CCc3ccc(F)cc3C2C)o1 (stereo not given)	3.836	-17.44
CCn1cnnc1C1CCN(C(=O)c2cccc(OC)c2OC)CC1	-5.729	9.838
CC(C)NC(=O)c1cc(Br)cc(S(=O)(=O)N2CCOCC2)c1F	-10.44	8.987
Cc1c[nH]c(CN(C)c2nc(C3CCCC3)nc3c2cnn3C)n1	11.97	18.23 and 19.17
CCc1cnc(C)nc1NC(C)C(=O)Nc1cc(F)ccc1C (stereo not given)	-22.71	22.65
CCOC(=O)Cc1csc(NC(=O)c2cc(=O)c(OC)c[nH]2)n1	6.598	-4.547
CCCOCC(=O)NS(=O)(=O)c1ccc2c(c1)OCCO2	-5.138	24.34
CCOC1Sc2nnc(C)n2N=C1c1ccc(Cl)cc1 (stereo not given)	1.811	5.658 and 1.376
CC(NCc1cnc(C2CCC2)s1)c1ccc(-n2cncn2)cc1 (stereo not given)	28.86	37.13
Nc1cc2c(nn1)CCN(C(=O)c1cccc3c1OCO3)C2	-2.465	36.67
CCN1CC(O)CN(C(=O)c2ccc(SC)cc2)CC1=O (stereo not given)	-16.18	-16.1
Cc1nnc(CN(Cc2ccco2)Cc2cccc3c2OCO3)n1C	-5.345	-7.878
Cc1cnn(CC(C)NCc2ccc(OCc3cccnc3)cc2)c1 (stereo not given)	-6.345	-3.753
[H][C@]12CC[C@]([H])(CN(Cc3ccccc3)C1)N(C(=O)c1cnc(SC)nc1)C2	18.57	19.84 and 30.89
CCCOCC1CCN(C(=O)c2cnc(C)nc2O)C1 (stereo not given)	15.4	6.006
COc1ccc(Br)cc1CC(=O)Nc1cc(C)n[nH]1	-9.232 and 1.528	-9.165
O=c1cc(CN2CCCC2)nc2n1CCCN(S(=O)(=O)C1CC1)C2	6.002	3.924
Cc1nnc2n1CCN(Cc1ncc(-c3ccc(Cl)cc3)o1)C2	-25.26	-49.42
CC(C)c1cc(N2CCC(NS(C)(=O)=O)CC2)n2nccc2n1	-3.685	-16.84
CC(C)Oc1ncnc2c1CCN(Cc1cccs1)CC2	9.829	16.97
CN(CC(=O)N1CC(Oc2ccccc2Cl)C1)Cc1ccncc1	-10.66	-10.4
CC(=O)N1CCC(C(=O)c2cc(C)cnc2N)CC1	-8.828	6.472
Cc1nccc(CNC(=O)NCCC(=O)N2CCCc3ccccc32)n1	1.778	-9.971
c1cnn(Cc2ccc(CN3CCC4(CCNCC4)C3)cc2)c1	-3.008 and -1.976	12.61
Cc1cc(C)c(CNC(=O)C(C)Oc2ccccc2C#N)c(=O)[nH]1 (stereo not given)	2.576	8.349
Cc1ccc(NCc2cccc3cn[nH]c23)cc1OC1CCOC1 (stereo not given)	11.2	8.035 and 11.42
CN(C)C(=O)N1CCC2(CC1)C(c1cnn(C)c1)CC(=O)N2C (stereo not given)	-20.66	8.258
O=C(O)C(F)(F)F.O=C(O)C(F)(F)F.[H][C@]12C[C@@H](C(=O)Nc3cccnc3)CO[C@@]1([H])CCN(C(C)C)C2	-29.97	-14.43
CCOn1c(SC(C)C)nc2ccccc2c1=O	1.13	-4.446
CC(C#N)CN(C)Cc1ccc(Cl)c2cccnc12 (stereo not given)	10.44	5.871
O=C(O)C(F)(F)F.[H][C@@]12CN(Cc3ccc(F)cc3)C[C@]1([H])C(=O)N(c1cncnc1)C2	-12.28	3.502 and -6.103
O=C(c1cnc2c(cnn2C2CCCC2)c1)N1CCN(CCO)CC1	-7.992	-19.16 and 2.061
COc1ccccc1OCCNCc1c(C(C)C)nn(C)c1N(C)C	-7.084	24.35
Cc1nc(Cn2c3c(ccc2=O)CC(N)CC3)cs1 (stereo not given)	-8.608	-28.55
COC(=O)c1ccc(CNC(=O)Cc2csc(C(C)=O)c2)cc1	-15.08	-6.279
CN1CCc2c1nc1c(c2N)CCC1	-4.429	4.564

The first 6 entries again:

{"smiles": "CC(CNC(=O)c1cc(C2CC2)on1)N1CCc2ccccc21", "stereo": "stereo not given", "A": 41.23, "B": 57.18}
{"smiles": "[H][C@@]12CCN(C(=O)c3occc3C)C[C@@]1([H])O[C@@H](c1nnc(C3CC3)o1)C2", "A": 15.43, "B": 5.607}
{"smiles": "O=C(O)C(F)(F)F.[H][C@@]12CCN(CC(=O)NC)C[C@]1([H])CN(C(=O)c1ccoc1)C2", "A": 3.214, "B": -2.61}
{"smiles": "Cc1nc(-c2cccc(N3CCC(N4CCCC4)CC3)c2)cs1", "A": 12.33, "B": 66}
{"smiles": "c1ccc(CN2CCCC(CNc3ncnc4c3CCNCC4)C2)cc1", "stereo": "stereo not given", "A": 22.58, "B": 25.54}
{"smiles": "CC(C)(C)c1n[nH]c(C2CN(Cc3nnc(C4CCC4)o3)CCO2)n1", "stereo": "stereo not given", "A": -6.565, "B": -6.267}